The values that follow come from PubChem BioAssay AID445 (National Center for Advancing Translational Sciences (NCATS), 2006).

This is one part of the list. The main result of the screen is listed elsewhere. These columns were measured beside it and carry no call. Most of these compounds were active or inconclusive in the main read-out, so they are no random draw. The note in brackets gives the kind of curve behind each potency; many fits are weak.

This test is described as follows: IkB Signaling. As to conditions: ABC-DLBCL IkBa-CBG/CBR dual luciferase ratio (green luciferase fused to IkBa over red control in OCI-Ly3 lymphoma cells), 4 h. In outline: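 Curves were fitted separately to fusion (green), unfused (red) and ratio luminescence, then classed by r2, magnitude and activity. Cells: OCI-Ly3, 4 h compound plus doxycycline at 37C; 10 uM MG-132 defined full response.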
Where [1] appears, read: measured here: control luc red channel unless noted.
The mark [2] stands for this setting: measured here: IkB-luc green channel.
[3] abbreviates: measured here: control luc red channel.

In general, AC50 refers to the midpoint of the concentration-response curve, whichever way the signal moves. As for `CC(C)C1C(C#N)=C(N)Oc2n[nH]c(-c3ccccc3)c21` (stereo unspecified), the AC50 under setting [1] was 3.16 µM [falling, full curve].

In the case of `CCCCN(CCCC)c1ncnc2c1cnn2-c1cccc(C)c1`, the AC50 under setting [1] is 3.16 µM [rising, partial curve].

On to `CCOC(=O)C1CCN(S(=O)(=O)c2cc(-c3onc(C)c3C)ccc2C)CC1`, for which the AC50 under setting [1] was 31.6 µM [falling, partial curve].

For the molecule `COc1ccc2[nH]cc(CCNc3ncnc4ccc(-c5ccc(C(=O)N(C)C)cc5)cc34)c2c1`, the AC50 under setting [1] is 3.98 µM [falling, single point] [measured here: IkB-luc green channel].

Take `O=C(CCN1CCN(c2ccc(Cl)cc2)CC1)Nc1ccccc1F`: the AC50 under setting [1] was 794 nM [rising, partial curve, poor fit] [measured here: IkB-luc green channel].

As for `CCc1ccccc1Nc1cc(C(=O)NCc2ccc(C)cc2)c2ccccc2n1`, under setting [1], the AC50 was 3.98 µM [falling, full curve].

Take `CCOC(=O)N1CCN(C(=O)c2ccc3c(c2)N(Cc2ccccc2F)C(=O)c2ccccc2S3=O)CC1` (stereo unspecified): the AC50 under setting [1] was 15.8 µM [falling, partial curve].

As to `O=C(c1c2c(nc3ccccc13)C(=O)N(C1CCCCC1)C2)N1CCN(c2ccc(F)cc2)CC1`, under setting [1], the AC50 is 10 µM [falling, partial curve].

Regarding `CC(C)CCNC(=O)CN1C(=O)CCn2nc(-c3cn(C)c4ccccc34)cc21`, under setting [1], the AC50 is 2 µM [falling, partial curve].

As for `CCOc1ccc(NC(=O)CSc2oc(-c3ccco3)nc2S(=O)(=O)c2ccc(C)cc2)cc1`, the AC50 under setting [1] is 6.31 µM [falling, partial curve].

As for `CCCOc1ccc(/C=C/C(=O)Nc2sc(C)c(C)c2C(=O)OCC)cc1OC`, the AC50 runs as follows: under setting [2], 31.6 µM [rising, partial curve]; under setting [3], 25.1 µM [rising, partial curve].

With `CCOc1ccc(S(=O)(=O)NCCc2csc(-c3ccc(Cl)cc3)n2)cc1`, the AC50 under setting [1] is 12.6 µM [falling, partial curve].

For the molecule `COc1ccc(NC2=Nc3ccccc3CC2)cc1`, the AC50 under setting [1] was 20 µM [falling, single point].

In the case of `CC(C)Cn1c(SCC(=O)NC(=O)NC2CCCC2)nc2ccccc21`, the AC50 under setting [1] is 25.1 µM [falling, partial curve].

`COc1ccc(OCc2ccc(-c3nc(C#N)c(N4CCN(C)CC4)o3)o2)cc1`: the AC50 under setting [1] is 31.6 µM [falling, single point].

Take `CCC(c1nnnn1Cc1ccco1)N(Cc1cc2cc(C)cc(C)c2[nH]c1=O)CC1CCCO1` (stereo unspecified): under setting [1], the AC50 is 15.8 µM [falling, partial curve].

For the molecule `Cc1ccc2c(CN3CCN(Cc4ccccc4Cl)CC3)cc(=O)oc2c1`, under setting [1], the AC50 was 31.6 µM [falling, single point].

`COc1ccc(C2CC(=O)Nc3c2c(=O)nc2c(C)cccn32)cc1OC` (stereo unspecified): under setting [1], the AC50 was 0.00631 µM [falling, full curve, poor fit].

In the case of `CCCCC1CCC(C(=O)N2CC(=O)Nc3ccc(F)cc3C2c2ccc(F)cc2)CC1` (stereo unspecified), the AC50 under setting [1] is 7.94 µM [falling, full curve, poor fit].

For the molecule `Cc1nc2sc(C(=O)N(C)Cc3ccccc3)c(NC(=O)c3ccccc3)c2c(C)c1Cl`, the AC50 under setting [1] was 6.31 µM [falling, partial curve].

With `CCOc1ccc(CNC(=O)c2ccc(Sc3ccc(Cl)cc3)c(NC(C)=O)c2)cc1`, the AC50 under setting [1] was 31.6 µM [falling, single point].

Take `O=C(NCC1CCN(Cc2ccccc2F)CC1)Nc1ccc(F)c(Cl)c1`: the AC50 under setting [1] was 0.0631 µM [falling, full curve, poor fit].

Turning to `CCCOc1ccc(C(=O)Nc2cc3c(cc2N2CCCCC2)n(C)c(=O)n3C)cc1`, the AC50 is 25.1 µM [rising, partial curve] under setting [2] and 39.8 µM [falling, single point] under setting [3].

On to `CC(C)c1ccc(N(CC(=O)O)S(=O)(=O)c2ccc3[nH]c(=O)c(=O)[nH]c3c2)cc1`, for which the AC50 under setting [1] is 0.631 µM [rising, full curve].

As to `Cc1ccc(S(=O)(=O)Cc2nc(-c3ccc(C(=O)NCCCOC(C)C)cc3)oc2C)cc1`, under setting [1], the AC50 is 3.98 µM [falling, partial curve].

On to `c1ccc(-c2ccc(-c3ccccn3)nn2)nc1`, for which the AC50 under setting [1] is 3.98 µM [falling, full curve].

On to `CSc1ccc(CCNC(=O)CCCn2c(=O)c3cccn3c3ccccc32)cc1`, for which the half-maximal activity concentration (AC50) under setting [1] is 6.31 µM [falling, partial curve].

Take `CSc1ncc2c(n1)-c1ccccc1N(Cc1ccccc1)S2(=O)=O`: under setting [1], the AC50 was 25.1 µM [falling, partial curve].

For the molecule `O=C1c2[nH]nc(-c3ccc(F)cc3)c2C(c2ccccc2F)N1c1ccccc1` (stereo unspecified), the AC50 under setting [1] is 15.8 µM [falling, partial curve].

As to `O=C(NCc1ccc(F)cc1)C(=O)NCC(c1ccc2c(c1)OCO2)N1CCOCC1` (stereo unspecified), under setting [1], the half-maximal activity concentration (AC50) was 0.2 µM [falling, single point].

As to `Cc1cccc(-c2nc3nc(C)cc(NC(C)c4ccccc4)n3n2)c1` (stereo unspecified), the half-maximal activity concentration (AC50) under setting [1] was 12.6 µM [falling, partial curve].

Consider `COc1ccc(C(=O)N(Cc2ccco2)Cc2ccc(C)o2)cc1`, for which the AC50 under setting [1] was 25.1 µM [falling, single point].

As to `CNC(=O)c1c(NC(=O)/C=C/c2ccccc2)sc2c1CCC2`, the AC50 under setting [1] is 0.0398 µM [falling, full curve].

Take `Cc1ccc2nc(-c3ccc(NC(=O)COc4ccc(Br)cc4Br)cc3)sc2c1`: under setting [1], the AC50 is 0.631 µM [rising, full curve].

Regarding `CCOc1ccc(NC(=O)Cn2nnc(-c3nc(-c4ccncc4)no3)c2N)cc1`, under setting [1], the AC50 was 6.31 µM [rising, full curve].

Regarding `Cc1ccccc1NC(=O)/C(C#N)=C/c1ccc(Cl)cc1Cl`, the AC50 is, setting by setting: under setting [2], 10 µM [rising, partial curve]; under setting [3], 15.8 µM [rising, partial curve].

For `CCc1ccc(NCc2cc3cc4c(cc3n(CC(=O)Nc3ccccc3C)c2=O)OCCO4)cc1`, the AC50 under setting [1] was 1.58 µM [falling, partial curve].

As for `Cc1ccc2oc(-c3ccc(Cl)c(NC(=O)c4cc5ccccc5o4)c3)nc2c1`, the AC50 under setting [1] is 2 µM [falling, full curve].
